Test results taken from the supplement of paper PMC7666118.
Some of the results follow.

The chains behind the UniProt entries cited, without tags or fusion partners. Where a name states a change or a piece, a line headed by the entry shows the natural chain unless it says otherwise.
UniProt Q8TBX8: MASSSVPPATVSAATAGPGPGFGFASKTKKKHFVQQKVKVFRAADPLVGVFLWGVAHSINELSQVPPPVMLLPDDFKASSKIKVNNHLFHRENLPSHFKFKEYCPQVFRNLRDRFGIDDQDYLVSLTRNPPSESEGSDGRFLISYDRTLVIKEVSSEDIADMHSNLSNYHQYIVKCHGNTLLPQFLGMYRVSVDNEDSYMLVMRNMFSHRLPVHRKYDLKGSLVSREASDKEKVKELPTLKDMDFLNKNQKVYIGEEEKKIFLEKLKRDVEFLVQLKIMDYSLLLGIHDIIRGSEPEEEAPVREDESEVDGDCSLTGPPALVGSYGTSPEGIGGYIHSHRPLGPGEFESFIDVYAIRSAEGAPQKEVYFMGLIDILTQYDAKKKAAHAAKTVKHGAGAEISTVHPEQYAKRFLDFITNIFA
UniProt O75569: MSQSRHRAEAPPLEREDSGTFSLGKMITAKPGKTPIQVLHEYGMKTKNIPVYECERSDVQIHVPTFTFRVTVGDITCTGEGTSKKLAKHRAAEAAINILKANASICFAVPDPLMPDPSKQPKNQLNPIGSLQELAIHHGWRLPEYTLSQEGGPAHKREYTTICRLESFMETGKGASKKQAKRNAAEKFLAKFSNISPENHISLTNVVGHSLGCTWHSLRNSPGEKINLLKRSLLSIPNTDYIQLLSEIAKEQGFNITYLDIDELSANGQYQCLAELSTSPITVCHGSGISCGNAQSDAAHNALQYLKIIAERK
UniProt Q9HB19: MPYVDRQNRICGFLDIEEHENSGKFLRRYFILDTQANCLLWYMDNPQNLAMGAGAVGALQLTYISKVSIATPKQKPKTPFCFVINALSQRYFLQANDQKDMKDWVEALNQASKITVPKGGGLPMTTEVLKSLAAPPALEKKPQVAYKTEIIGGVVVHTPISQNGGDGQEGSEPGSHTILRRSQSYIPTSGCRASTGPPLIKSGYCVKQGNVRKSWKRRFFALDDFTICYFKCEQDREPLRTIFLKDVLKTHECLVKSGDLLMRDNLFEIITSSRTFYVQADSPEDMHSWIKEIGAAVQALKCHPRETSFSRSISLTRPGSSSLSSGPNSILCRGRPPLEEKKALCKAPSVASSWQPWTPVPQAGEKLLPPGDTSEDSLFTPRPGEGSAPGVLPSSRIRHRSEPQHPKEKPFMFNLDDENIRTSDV
UniProt O43164: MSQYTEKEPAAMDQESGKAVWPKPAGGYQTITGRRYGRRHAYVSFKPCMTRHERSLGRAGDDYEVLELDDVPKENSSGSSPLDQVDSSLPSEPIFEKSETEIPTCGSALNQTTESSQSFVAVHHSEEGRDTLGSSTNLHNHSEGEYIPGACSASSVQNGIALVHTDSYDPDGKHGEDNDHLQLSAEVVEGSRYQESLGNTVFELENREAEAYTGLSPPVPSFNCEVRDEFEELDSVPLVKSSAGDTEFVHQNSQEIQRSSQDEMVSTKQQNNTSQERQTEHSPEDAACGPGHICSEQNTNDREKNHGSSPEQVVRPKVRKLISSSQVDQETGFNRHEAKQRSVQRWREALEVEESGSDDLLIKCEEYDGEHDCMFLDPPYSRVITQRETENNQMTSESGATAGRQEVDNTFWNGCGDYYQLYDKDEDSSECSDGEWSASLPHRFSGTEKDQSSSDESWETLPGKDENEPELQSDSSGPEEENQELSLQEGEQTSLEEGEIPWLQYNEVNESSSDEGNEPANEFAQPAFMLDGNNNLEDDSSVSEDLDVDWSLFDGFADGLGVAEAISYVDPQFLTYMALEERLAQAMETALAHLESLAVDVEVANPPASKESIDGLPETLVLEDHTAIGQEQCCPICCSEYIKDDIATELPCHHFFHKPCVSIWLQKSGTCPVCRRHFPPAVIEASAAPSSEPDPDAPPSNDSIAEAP
UniProt Q5JRX3: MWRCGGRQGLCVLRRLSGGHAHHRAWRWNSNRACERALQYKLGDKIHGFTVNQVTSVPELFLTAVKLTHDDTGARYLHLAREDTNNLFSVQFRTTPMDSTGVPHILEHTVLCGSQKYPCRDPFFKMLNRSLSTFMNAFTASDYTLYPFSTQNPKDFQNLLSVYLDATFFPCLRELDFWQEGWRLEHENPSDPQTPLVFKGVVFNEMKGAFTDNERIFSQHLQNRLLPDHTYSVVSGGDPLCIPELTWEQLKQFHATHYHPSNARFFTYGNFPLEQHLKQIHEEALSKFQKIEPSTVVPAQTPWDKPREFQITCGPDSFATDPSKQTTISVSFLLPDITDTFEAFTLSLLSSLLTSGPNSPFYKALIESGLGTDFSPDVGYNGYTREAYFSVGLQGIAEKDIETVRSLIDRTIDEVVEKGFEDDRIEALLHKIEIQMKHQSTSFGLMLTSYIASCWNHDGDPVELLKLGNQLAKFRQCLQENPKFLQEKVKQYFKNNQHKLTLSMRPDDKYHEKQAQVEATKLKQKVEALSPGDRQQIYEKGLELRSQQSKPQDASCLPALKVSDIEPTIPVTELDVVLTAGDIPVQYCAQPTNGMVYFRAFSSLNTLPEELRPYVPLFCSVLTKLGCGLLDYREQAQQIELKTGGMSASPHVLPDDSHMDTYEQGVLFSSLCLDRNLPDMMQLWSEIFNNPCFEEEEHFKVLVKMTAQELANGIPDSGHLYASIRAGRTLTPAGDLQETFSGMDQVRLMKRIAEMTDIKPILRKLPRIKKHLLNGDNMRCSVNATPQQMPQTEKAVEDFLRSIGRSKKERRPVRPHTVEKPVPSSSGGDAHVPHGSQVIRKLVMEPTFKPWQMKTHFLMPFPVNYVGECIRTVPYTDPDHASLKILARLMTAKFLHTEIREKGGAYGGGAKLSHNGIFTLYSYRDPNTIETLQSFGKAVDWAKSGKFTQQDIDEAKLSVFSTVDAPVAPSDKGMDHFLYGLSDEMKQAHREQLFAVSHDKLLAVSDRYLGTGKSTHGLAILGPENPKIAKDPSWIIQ
UniProt Q9Y2S7: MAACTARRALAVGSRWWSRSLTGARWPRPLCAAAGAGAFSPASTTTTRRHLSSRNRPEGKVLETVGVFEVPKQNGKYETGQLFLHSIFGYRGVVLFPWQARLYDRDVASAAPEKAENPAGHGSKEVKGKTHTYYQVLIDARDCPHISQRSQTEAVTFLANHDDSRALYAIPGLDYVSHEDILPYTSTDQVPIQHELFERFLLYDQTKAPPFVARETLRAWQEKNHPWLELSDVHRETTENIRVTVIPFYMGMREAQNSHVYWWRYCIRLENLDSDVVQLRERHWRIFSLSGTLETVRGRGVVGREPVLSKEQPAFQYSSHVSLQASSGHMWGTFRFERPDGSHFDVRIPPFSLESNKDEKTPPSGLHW
UniProt P30048: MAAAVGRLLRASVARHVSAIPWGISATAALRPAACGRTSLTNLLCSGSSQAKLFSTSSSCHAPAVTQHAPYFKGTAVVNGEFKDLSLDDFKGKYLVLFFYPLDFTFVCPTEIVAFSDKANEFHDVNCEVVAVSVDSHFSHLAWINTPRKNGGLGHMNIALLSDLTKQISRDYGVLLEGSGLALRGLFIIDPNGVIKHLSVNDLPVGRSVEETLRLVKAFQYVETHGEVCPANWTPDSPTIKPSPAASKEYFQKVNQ
UniProt O15162: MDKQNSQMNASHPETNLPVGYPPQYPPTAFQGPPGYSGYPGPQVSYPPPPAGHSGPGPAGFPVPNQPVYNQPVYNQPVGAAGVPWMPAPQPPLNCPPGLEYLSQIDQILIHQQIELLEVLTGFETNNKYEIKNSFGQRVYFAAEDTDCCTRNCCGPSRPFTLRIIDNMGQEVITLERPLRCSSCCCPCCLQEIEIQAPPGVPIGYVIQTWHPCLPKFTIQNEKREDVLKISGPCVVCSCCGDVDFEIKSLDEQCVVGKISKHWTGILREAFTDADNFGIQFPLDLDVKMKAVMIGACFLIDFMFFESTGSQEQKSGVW
UniProt O95336: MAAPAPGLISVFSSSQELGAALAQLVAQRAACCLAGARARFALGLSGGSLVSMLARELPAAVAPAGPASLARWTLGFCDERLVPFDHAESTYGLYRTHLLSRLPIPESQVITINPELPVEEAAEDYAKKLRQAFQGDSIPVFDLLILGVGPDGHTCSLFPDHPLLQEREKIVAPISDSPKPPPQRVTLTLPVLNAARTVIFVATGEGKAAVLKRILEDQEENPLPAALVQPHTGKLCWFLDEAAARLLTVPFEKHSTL
UniProt Q04941: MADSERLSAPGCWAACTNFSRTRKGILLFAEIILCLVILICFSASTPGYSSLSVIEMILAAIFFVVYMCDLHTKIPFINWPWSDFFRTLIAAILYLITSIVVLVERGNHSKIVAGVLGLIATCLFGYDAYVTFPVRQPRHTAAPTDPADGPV
UniProt O95707: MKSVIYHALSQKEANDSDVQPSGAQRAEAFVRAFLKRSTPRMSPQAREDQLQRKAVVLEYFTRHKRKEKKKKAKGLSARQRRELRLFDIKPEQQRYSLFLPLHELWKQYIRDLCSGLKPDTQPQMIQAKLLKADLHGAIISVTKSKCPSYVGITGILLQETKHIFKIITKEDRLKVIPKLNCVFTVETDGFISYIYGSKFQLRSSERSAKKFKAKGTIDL
UniProt Q15126: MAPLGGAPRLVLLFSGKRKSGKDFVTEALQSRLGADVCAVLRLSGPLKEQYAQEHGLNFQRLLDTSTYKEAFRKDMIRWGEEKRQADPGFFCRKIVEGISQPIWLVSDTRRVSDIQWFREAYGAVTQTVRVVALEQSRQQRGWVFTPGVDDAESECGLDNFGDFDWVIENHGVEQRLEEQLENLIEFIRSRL
UniProt A8CG34, whole entry: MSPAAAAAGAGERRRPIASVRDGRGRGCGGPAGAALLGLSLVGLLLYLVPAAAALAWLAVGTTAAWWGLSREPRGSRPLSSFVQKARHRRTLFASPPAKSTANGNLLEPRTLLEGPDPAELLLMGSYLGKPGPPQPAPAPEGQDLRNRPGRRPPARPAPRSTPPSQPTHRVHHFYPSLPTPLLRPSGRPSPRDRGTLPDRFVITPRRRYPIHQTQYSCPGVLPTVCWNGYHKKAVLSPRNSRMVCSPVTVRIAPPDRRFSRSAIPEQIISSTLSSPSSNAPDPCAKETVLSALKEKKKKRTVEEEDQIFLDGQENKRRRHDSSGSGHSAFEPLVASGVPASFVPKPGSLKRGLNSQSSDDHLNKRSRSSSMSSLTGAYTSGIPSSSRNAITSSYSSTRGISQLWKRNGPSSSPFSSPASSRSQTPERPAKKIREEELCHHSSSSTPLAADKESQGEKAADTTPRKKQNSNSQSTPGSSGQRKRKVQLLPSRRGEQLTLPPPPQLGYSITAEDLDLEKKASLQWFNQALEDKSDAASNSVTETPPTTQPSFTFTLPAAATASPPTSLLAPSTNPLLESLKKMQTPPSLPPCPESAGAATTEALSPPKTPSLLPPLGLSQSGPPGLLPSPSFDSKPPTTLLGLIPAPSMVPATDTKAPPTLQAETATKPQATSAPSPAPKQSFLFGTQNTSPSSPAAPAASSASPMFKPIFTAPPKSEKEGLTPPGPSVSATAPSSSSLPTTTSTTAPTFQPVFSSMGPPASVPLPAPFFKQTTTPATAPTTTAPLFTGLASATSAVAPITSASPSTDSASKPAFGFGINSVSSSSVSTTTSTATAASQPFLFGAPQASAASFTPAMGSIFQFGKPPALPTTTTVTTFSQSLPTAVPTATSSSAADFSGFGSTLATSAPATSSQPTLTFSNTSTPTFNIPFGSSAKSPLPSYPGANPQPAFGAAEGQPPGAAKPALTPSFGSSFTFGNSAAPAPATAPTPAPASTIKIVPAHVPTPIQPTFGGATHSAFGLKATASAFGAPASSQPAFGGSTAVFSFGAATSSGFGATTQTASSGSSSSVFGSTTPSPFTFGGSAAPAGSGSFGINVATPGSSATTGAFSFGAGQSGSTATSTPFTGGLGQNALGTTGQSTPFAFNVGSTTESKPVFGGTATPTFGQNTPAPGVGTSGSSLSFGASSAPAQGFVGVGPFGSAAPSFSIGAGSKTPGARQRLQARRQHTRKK
UniProt P30154, whole entry: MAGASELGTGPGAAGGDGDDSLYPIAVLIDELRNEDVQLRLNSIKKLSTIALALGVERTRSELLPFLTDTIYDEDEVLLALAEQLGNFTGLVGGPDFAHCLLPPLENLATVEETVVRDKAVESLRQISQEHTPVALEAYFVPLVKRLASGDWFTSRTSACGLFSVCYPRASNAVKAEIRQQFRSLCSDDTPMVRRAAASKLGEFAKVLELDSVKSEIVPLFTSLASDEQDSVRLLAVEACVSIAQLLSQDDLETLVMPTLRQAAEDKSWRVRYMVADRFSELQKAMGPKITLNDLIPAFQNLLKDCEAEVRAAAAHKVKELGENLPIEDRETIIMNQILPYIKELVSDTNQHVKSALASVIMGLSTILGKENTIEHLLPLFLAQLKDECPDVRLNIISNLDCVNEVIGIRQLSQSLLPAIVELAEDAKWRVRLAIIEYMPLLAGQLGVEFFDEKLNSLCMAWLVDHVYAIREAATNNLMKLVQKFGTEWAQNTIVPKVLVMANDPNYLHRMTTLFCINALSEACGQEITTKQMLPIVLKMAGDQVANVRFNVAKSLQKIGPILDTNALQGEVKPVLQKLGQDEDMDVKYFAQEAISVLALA

The targets below were run with COc1ccc(Cn2ccc3ccc(C(=O)NO)cc32)cc1 (assay: dose-dependent thermal stabilisation call (2D-TPP, DLPTP, 10% FDR) (binary (1 = stabilised)); higher = stabilised by the compound). Details: system: HL-60 intact cells; concentration range 0.04-10 µM.

Row | Target | dose-dependent thermal stabilisation call
1 | PRKX (UniProt P51817) | inactive: 0
2 | POLR2K (UniProt P53803) | inactive: 0
3 | PGRMC1 (UniProt O00264) | inactive: 0
4 | PPA1 (UniProt Q15181) | inactive: 0
5 | PLS1 (UniProt Q14651) | inactive: 0
6 | PNPLA8 (UniProt Q9NP80) | inactive: 0
7 | PIP4K2C (UniProt Q8TBX8) | inactive: 0
8 | PRKRA (UniProt O75569) | inactive: 0
9 | POLR3C (UniProt Q9BUI4) | inactive: 0
10 | PRKDC (UniProt P78527) | inactive: 0
11 | PLEKHA2 (UniProt Q9HB19) | inactive: 0
12 | PJA2 (UniProt O43164) | inactive: 0
13 | PIBF1 (UniProt Q8WXW3) | inactive: 0
14 | POU2F1 (UniProt P14859) | inactive: 0
15 | PGM2L1 (UniProt Q6PCE3) | inactive: 0
16 | PPP1CC (UniProt P36873) | inactive: 0
17 | PLCG1 (UniProt P19174) | inactive: 0
18 | PIAS4 (UniProt Q8N2W9) | inactive: 0
19 | PREX1 (UniProt Q8TCU6) | inactive: 0

Row | Target | dose-dependent thermal stabilisation call
20 | PRIM1 (UniProt P49642) | inactive: 0
21 | PITRM1 (UniProt Q5JRX3) | inactive: 0
22 | POLDIP2 (UniProt Q9Y2S7) | inactive: 0
23 | PMM2 (UniProt O15305) | inactive: 0
24 | PRDX3 (UniProt P30048) | inactive: 0
25 | PIK3CB (UniProt P42338) | inactive: 0
26 | PMM1 (UniProt Q92871) | inactive: 0
27 | PIN4 (UniProt Q9Y237) | inactive: 0
28 | PLSCR1 (UniProt O15162) | inactive: 0
29 | PGLS (UniProt O95336) | inactive: 0
30 | PLP2 (UniProt Q04941) | inactive: 0
31 | POLR2A (UniProt P24928) | inactive: 0
32 | POP4 (UniProt O95707) | inactive: 0
33 | PMVK (UniProt Q15126) | inactive: 0
34 | POM121C (UniProt A8CG34) | inactive: 0
35 | PMPCA (UniProt Q10713) | inactive: 0
36 | PPP2R1B (UniProt P30154) | inactive: 0
37 | PREB (UniProt Q9HCU5) | inactive: 0

Quoted at random: two entries already listed, in no set order.
Row | Target | dose-dependent thermal stabilisation call
33 | PMVK (UniProt Q15126) | inactive: 0
31 | POLR2A (UniProt P24928) | inactive: 0
